From publication PMC10834661 come the findings set out here.

These are yes or no findings as the source states them, for the method shown. Sequences can lack the tags named with a protein.

In the experiment the target is cyclization domain of cyclic β-1,2-glucan synthase from Thermoanaerobacter italicus (TiCGSCy) (Thermoanaerobacter italicus) (UniProt D3T4C1). The experiment can be described thus: SEC; Superdex 200GL column, 0.5 mg/ml (500 μl) loaded, 50 mM Tris-HCl buffer (pH 8.0) containing 150 mM NaCl; molecular weight markers ovalbumin, conalbumin, aldolase, ferritin, thyroglobulin; both purified. (In general: Size exclusion chromatography separates by hydrodynamic size, large species first.)

B1: cyclization domain of cyclic β-1,2-glucan synthase from Thermoanaerobacter italicus (TiCGSCy) (domain or fragment, UniProt D3T4C1 1005-1591)
chain: IISKEKTVSQEEMEELRLVARKTWRYFEDFVTEGQNYLPPDNFQEDPPNGVAERTSPTNIGLYLVSVIGARDLGYITTTEMVERIKKTLDTIEKMEKWNGHLYNWYNTKTLEPLRPYYVSTVDSGNLVGYLITVKEAIGEFLNKPLIDIELAKGLKDTIKMLNVKGITEDIFTTILSKTTLVPSEWEAFLNKIREKLLSSQDDLENIKRLKNIIIALKGEMKEFLVWTEFDESEKEQEIFKRYKEVFEEHSSPKELEKVYKNYLLEIEEVFKKATEEEKALLKSQKDKVAQALEKIKKLEAEIENIKSTIENLVEKTEFRHLYDEKRQLFSIGYNVEEEKLTKSYYDLLASEARQASFIAIAKKEVDKKHWFKLGRMLAIENRYKGLVSWSGTMFEYFMPLLVMRNYQNTLLDETYAFAVRVQKNYAKELGIPWGISESGFYAFDMNLNYQYKAFGVPSLGLKRGLSHDKVVAPYGSLLAIGVDVEGVLQNIRFFKKEGAEGKYGFYEAIDYTPERVPFGKKSAIVKSFMAHHQGMVFVALDNFINNNVMQKRFHKDPRIKAAQILLQEKMPMYLDITREEREGARK
In the case of B1, the binding result is given as “no binding (tested: 0.5 mg/ml)”.
